Here are results for one substance from paper PMC9478099.

Chains of the proteins cited; added tags and fusions are not shown.
UniProt P19338: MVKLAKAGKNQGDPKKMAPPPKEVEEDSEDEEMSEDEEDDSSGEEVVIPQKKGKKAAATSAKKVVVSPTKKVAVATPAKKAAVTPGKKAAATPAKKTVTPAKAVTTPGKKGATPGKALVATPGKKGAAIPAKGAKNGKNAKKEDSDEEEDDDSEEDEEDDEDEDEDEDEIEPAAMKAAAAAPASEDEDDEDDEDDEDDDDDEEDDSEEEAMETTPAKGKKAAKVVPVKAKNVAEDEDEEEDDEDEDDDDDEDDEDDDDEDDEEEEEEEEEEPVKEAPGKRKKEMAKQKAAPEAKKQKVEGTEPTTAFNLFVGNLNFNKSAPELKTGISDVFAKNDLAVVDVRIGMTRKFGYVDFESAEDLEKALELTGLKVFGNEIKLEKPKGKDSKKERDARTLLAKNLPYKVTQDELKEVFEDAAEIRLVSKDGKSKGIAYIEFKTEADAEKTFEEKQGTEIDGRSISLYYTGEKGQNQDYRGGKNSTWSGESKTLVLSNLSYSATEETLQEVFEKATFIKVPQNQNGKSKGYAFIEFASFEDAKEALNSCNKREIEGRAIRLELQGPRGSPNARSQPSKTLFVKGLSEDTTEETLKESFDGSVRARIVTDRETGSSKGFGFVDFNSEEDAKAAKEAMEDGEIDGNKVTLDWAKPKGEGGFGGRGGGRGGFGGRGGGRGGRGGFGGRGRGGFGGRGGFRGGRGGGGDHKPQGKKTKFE
UniProt Q96D31: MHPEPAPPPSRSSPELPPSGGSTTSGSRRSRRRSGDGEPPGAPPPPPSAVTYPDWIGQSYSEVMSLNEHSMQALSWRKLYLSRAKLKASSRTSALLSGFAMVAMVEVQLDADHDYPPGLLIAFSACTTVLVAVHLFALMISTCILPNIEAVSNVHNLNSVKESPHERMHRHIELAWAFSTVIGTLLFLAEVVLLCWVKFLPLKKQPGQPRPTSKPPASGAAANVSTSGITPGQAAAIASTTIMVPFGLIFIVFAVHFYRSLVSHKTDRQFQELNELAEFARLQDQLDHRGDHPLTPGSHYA

For the assay, the target named is Flag-tagged full-length NCL (UniProt P19338). Briefly: co-IP; MCF-7 cells transfected with NCL-Flag; immunoprecipitation with Flag antibody on protein A/G magnetic beads, mouse IgG as negative control; blots with anti-Flag and anti-Orai1.

These are yes or no findings as the source states them, for the method shown. Binding seen in cells or lysates may run through a third protein. Some binding calls cover weakened binding; strength is not graded here.

Turning to “Orai1, endogenous (from UniProt Q96D31 1-301)”, the binding result is given as “binds”.
